Changes are numbered by the printed parent chain. The list shows a part of the results.
B1: il10ra_site1_sap_14_mot_HHH_b2_05453_000000140_0001_43_57_H_._HHH_b2_06766_0001_0000500030_0000001_0_0001 (protein)
chain: SSSSDERMQEVQELIRRIAELHSEGNPEEAQRIIEEAKEIAEELGNDVLLWVIEYLERTLSSSSS
B2: il10ra_site1_normal_mot_HHH_eva_0540_af2_000000105_0001_1_16_H_._HHH_b2_07130_af2_0001_0000100004_0000001_0 (protein)
chain: SSSSDETEEVFELIEKAAKLLNDGNPEEAEKVLEEAREIAEKLGNDIFRWQIEFLEELIKKSSSS
B3: il10ra_site1_normal_mot_HHH_b1_05326_000000242_0001_1_20_H_._HHH_b1_06531_af2_0001_0000200003_0000001_0 (protein)
chain: SSSSSDEQQEVLKLLREVFRLLLRGNPEEAKKLVEEAREIAEEGNDPALEKAVKIAEEAASSSSS
B4: il10ra_site1_normal_mot_HHH_b2_00943_af2_000000149_0001_1_17_H_._HHH_b2_02724_af2_0001_0000600020_0000001_0 (protein)
chain: SSSSSEEFEELVEEAQRLAKELGDENVLFLIRQLEKAYRRAGDEWAAEILENLLKELEELGSSSS
B5: il10ra_site1_sap_18_mot_HHH_b1_03094_000000294_0001_1_20_H_._HHH_b2_02427_0001_0000500047_0000001_0_0001 (protein)
chain: SSSSSDTDEAVRRVKELLRRAMHVSEEEREELLREAEELAKEANNELLEWQVKFVARLLNSSSSS
B6: il10ra_site1_normal_mot_HHH_b2_07569_000000265_0001_38_56_H_._HHH_b1_06669_0001_0000300031_0000002_0 (protein)
chain: SSSSELEERIRELLEKLEELVEEGDVREASELALEIVQLIFELGDEELVQEVWELAKLAFENSSS
B7: il10ra_site1_normal_mot_HHH_b2_02053_af2_000000006_0001_3_19_H_._HHH_b2_04663_0001_0000200030_0000002_0_af2pred_0001 (protein)
chain: SSSSDEAQEVLELIRKALELLNNGNPEEAKEVLEEALRLAEEGNNPILRHIIEFLEEQVESSSSS
B8: il10ra_site1_normal_mot_3af0db62db2b275566dae2e03bf881fa_0001_000000003_0001_37_50_H_._HHH_b2_06527_0001_0000300018_0000001_0_af2pred_0001 (protein)
chain: SSSSSSDLEQQVRAAIWFAKNIHNPTVRRKALEFALKIAEEINNEELVEEIRELLEQVNSSSSSS
B9: il10ra_site1_sap_23_mot_HHH_b1_00992_000000182_0001_23_40_H_._HHH_b1_08664_0001_0000300022_0000001_0_0001 (protein)
chain: SSSSSDEELRRRVEELLEELEELTDPQERYRVLKEAIELAVEGRDPELLRLIMEVLRRLFSSSSS
B10: il10ra_site1_sap_22_mot_05ca327611f5605f0dd8494b449afcbf_0001_1_000000248_0001_35_51_H_._HHH_b2_01354_0001_0000400025_0000002_0_0001 (protein)
chain: SSSSDAEEYVKAALRFAKALAENGDPEAARRLLRLIIEALRNLGDEEAVELAEELLEKIEKSSSS
B11: il10ra_site1_sap_16_mot_HHH_b1_00999_000000080_0001_41_55_H_._HHH_b2_05851_af2_0001_0000100003_0000002_0_0001_af2pred_0001 (protein)
chain: SSSSSTAEELVRLAIEVAELLREQGDPELAEEALRIAERIARNANDPELRELVEELERLLSSSSS
B12: il10ra_site1_normal_mot_HHH_b1_02997_000000220_0001_39_52_H_._HHH_b2_05487_af2_0001_0000400018_0000001_0 (protein)
chain: SSSSSNEYEILRRAAELYAEGNLEEAQELLEELERELEEKGNFNHLFNVRYLLEQIRRLASSSSS
B13: il10ra_site1_normal_mot_HHH_b1_01233_000000085_0001_1_18_H_._HHH_b1_04853_af2_0001_0000300016_0000001_0 (protein)
chain: SSSSSEEYEKYKKILQEIVELEHEGDREEAEELAEQLLEELRELGNELAVHQVEFLLRLVRSSSS
B14: il10ra_site1_sap_23_mot_HHH_b1_03333_000000091_0001_1_17_H_._HHH_b1_08488_0001_0000300015_0000001_1_0001_af2pred_0001 (protein)
chain: SSSSSREEEALELSLRFLKFLLEEGDEEAAKRLARALLQLAKLANDEEVQREVEEIEKELSSSSS
B15: il10ra_site1_normal_mot_HHH_b2_04275_000000272_0001_20_36_H_._HHH_b2_04520_0001_0000200028_0000002_0_af2pred_0001 (protein)
chain: SSSSDEEEELIRLLRRIIELHTRGDDEEARELLEEARELAERLGNLVVEAILEFLEKLLESSSSS
B16: il10ra_site1_sap_22_mot_HHH_b1_01975_000000257_0001_1_17_H_._HHH_b2_06526_0001_0000100004_0000001_0_0001 (protein)
chain: SSSSDEEEERVLELSKEAFRLALRGNPEEAREVLEEALELAQEIGNERMVHVIEDLLKALSSSSS
B17: il10ra_site1_sap_21_mot_5d0551e3c4357af680d60aaa850e4cea_0001_1_af2_000000133_0001_18_33_H_._HHH_b2_07683_0001_0000300010_0000002_0_0001 (protein)
chain: SSSSNEEAEEYAENTKKFVKWLLEAGDPEAARRLLEAAIHAARNLGDEEVVEELEELLKEISSSS
B18: il10ra_site1_normal_mot_HHH_b2_03801_000000188_0001_20_36_H_._HHH_b1_01557_0001_0000600034_0000001_0 (protein)
chain: SSSSSDREVAERSARRLLEAAKQIDDDEYVRLTLRFAKALAEDVNDEELKKEIEEVIEELSSSSS
B19: il10ra_site1_sap_18_mot_HHH_b1_04514_000000156_0001_1_18_H_._HHH_b1_00771_0001_0000300037_0000001_0_0001_af2pred_dldesign_0_af2pred (protein)
chain: SSSSSSSLAERHFAAAEQFLAQGELELAKRALEYALFLAEAEGDEELVARIRARLAELSSSSSSS
B20: il10ra_site1_normal_mot_HHH_b2_07569_000000265_0001_38_56_H_._HHH_b1_06669_0001_0000100004_0000001_0 (protein)
chain: B6 chain with R9E, K16E, E18K, E19R, R27E, Q50K, A56V, N62R
B21: il10ra_site1_normal_mot_HHH_b2_02116_af2_000000165_0001_41_55_H_._HHH_b2_02806_af2_0001_0000300031_0000001_0 (protein)
chain: SSSSSSSEERSVRLLILAARRVSDPHLARAALRLAEEIARHSGNEELLEEAERLLEELRSSSSSS
B22: il10ra_site1_sap_16_mot_HHH_b2_03450_000000073_0001_38_52_H_._HHH_b1_01434_af2_0001_0000400017_0000001_0_0001_af2pred_0001 (protein)
chain: SSSSSSEVEEEVERLLEEAERIKDPHERAYALTRAFALANQNNDPELEELVKKVAIELTSSSSSS
B23: il10ra_site1_sap_18_mot_HHH_b2_01447_af2_000000258_0001_1_20_H_._HHH_b1_03356_0001_0000100001_0000001_0_0001_af2pred_0001 (protein)
chain: SSSSSSEEVEKTFEEVREKAEERGDESARFLAEVLLKAYRIAGDPRAQELLELLLKELNSSSSSS
B24: il10ra_site1_sap_14_mot_HHH_b1_05370_000000138_0001_1_16_H_._HHH_b2_06744_af2_0001_0000500017_0000002_0_0001 (protein)
chain: SSSTVEYLARQALRAAELAAEAGDKEAVEHILEILENLERHRGSEEVREAIRIVEELLEELSSSS

Target: il10ra, Q13651
Test: yeast display titration

Apparent Kd, inactive:
B1 no binding seen
B2 no binding seen
B3 no binding seen
B4 no binding seen
B5 no binding seen
B6 no binding seen
B7 no binding seen
B8 no binding seen
B9 no binding seen
B10 no binding seen
B11 no binding seen
B12 no binding seen
B13 no binding seen
B14 no binding seen
B15 no binding seen
B16 no binding seen
B17 no binding seen
B18 no binding seen
B19 no binding seen
B20 no binding seen
B21 no binding seen
B22 no binding seen
B23 no binding seen
B24 no binding seen

A portion from further up, as a working copy:
Apparent Kd, inactive:
B6 no binding seen
B7 no binding seen
B8 no binding seen
B9 no binding seen
B10 no binding seen
B11 no binding seen
